Assay results reported in patent US7332290B2, “Dectection of AMACR cancer markers in urine” (The Regents of the University of Michigan, priority 2001, dated 2008).
For at least one compound, name, drawing or mass did not settle the structure.

Test system: LNCaP cells
Assay: Androgen/anti-androgen treatment of LNCaP cells, Western blot of AMACR and PSA
Format: cell-based
Conditions: 20 μM, 24 and 48 hours
Description: Prostate cell lines (RWPE-1, LNCaP, PC3 and DU145) were obtained from the American Tissue Culture Collection. Cells were maintained in RPMI-1640 with 8% decomplemented fetal bovine serum, 0.1% glutamine and 0.1% penicillin and streptomycin (BioWhittaker, Walkersville, Md.). Cells were grown to 75% confluence and then treated for 24 and 48 with the antiandrogen bicalutamide (CASODEX, Zeneca Pharmaceuticals, Plankstadt, Germany) at a final concentration of 20 μM or with methyltrienolone (synthetic androgen (R1881); NEN, Life Science Products, Boston, Mass.) at a final concentration of 1 nM. Cells were harvested and lysed in NP-40 lysis buffer containing 50 mmol/L Tris-HCl, pH 7.4, 1% Nonidet P-40 (Sigma, St. Louis, Mo.) and complete proteinase inhibitor cocktail (Roche, Ind., USA). 15 μg of protein extracts were mixed with SDS sample buffer and electrophoresed onto a 10% SDS-polyacrylamide gel under reducing conditions. After transferring, the membranes (Amersham Pharmacia Biotech, Piscataway, N.J.) were incubated for 1 hour in blocking buffer (Tris-buffered saline with 0.1% Tween and 5% nonfat dry milk). The AMACR antibody was applied at 1:10.000 diluted blocking buffer overnight at 4° C. […]

SMILES: CC(O)(CS(=O)(=O)c1ccc(F)cc1)C(=O)Nc1ccc(C#N)c(C(F)(F)F)c1 (centres unmarked) [bicalutamide]
- AMACR expression in cell lysates: did not change
- PSA protein expression: decreased protein expression
